Data taken from PMC5006057.
Results are given in words; binding and its absence hold for the method and conditions named. In cells and extracts the contact can be indirect. Some results given as binding are weak or reduced against the parent protein; the word gives no strength.

Sequences of proteins named here, by UniProt entry; tags and fusion partners are left off. Residues count along the entry.
UniProt O75460, residues 19-977: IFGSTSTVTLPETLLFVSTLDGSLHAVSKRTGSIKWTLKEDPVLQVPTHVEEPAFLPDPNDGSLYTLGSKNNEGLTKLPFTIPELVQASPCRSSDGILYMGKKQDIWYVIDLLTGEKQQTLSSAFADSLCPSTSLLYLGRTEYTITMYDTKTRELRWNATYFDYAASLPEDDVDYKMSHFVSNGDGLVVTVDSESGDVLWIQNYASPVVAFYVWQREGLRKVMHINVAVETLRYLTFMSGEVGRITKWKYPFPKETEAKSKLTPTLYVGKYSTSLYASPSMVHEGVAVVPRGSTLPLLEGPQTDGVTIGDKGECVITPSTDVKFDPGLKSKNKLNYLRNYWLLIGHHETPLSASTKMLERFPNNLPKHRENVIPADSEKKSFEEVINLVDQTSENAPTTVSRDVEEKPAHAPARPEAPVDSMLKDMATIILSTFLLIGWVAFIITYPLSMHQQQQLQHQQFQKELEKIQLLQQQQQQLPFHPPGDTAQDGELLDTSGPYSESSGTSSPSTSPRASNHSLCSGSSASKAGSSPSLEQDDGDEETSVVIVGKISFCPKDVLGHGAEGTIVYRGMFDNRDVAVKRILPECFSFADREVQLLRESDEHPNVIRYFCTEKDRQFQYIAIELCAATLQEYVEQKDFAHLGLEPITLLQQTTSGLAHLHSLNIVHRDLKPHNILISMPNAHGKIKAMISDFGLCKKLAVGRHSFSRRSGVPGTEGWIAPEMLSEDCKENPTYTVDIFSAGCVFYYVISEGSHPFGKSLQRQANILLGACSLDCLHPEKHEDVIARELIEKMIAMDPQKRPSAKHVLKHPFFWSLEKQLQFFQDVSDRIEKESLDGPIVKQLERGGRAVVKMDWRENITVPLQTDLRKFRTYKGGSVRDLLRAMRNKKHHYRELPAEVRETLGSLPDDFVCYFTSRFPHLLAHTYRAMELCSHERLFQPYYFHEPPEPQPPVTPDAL
UniProt P55061: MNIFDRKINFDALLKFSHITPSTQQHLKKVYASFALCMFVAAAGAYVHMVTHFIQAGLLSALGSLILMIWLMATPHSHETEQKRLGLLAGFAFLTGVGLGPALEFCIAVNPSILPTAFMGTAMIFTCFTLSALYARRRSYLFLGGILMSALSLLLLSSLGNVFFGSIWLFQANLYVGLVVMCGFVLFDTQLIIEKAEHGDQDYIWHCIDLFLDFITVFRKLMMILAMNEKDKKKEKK
UniProt P05181: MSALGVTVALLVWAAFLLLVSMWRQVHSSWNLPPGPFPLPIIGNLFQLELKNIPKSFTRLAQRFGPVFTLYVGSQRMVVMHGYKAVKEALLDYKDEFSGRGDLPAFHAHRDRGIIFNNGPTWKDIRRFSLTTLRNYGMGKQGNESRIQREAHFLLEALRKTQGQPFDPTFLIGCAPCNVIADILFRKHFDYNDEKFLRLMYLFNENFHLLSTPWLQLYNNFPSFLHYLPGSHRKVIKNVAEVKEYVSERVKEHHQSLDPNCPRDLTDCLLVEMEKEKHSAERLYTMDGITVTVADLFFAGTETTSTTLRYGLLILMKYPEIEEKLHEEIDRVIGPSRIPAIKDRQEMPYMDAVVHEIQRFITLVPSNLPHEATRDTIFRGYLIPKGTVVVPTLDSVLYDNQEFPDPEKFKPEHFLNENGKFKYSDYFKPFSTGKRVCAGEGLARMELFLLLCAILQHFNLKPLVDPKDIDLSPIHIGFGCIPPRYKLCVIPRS
UniProt Q05421: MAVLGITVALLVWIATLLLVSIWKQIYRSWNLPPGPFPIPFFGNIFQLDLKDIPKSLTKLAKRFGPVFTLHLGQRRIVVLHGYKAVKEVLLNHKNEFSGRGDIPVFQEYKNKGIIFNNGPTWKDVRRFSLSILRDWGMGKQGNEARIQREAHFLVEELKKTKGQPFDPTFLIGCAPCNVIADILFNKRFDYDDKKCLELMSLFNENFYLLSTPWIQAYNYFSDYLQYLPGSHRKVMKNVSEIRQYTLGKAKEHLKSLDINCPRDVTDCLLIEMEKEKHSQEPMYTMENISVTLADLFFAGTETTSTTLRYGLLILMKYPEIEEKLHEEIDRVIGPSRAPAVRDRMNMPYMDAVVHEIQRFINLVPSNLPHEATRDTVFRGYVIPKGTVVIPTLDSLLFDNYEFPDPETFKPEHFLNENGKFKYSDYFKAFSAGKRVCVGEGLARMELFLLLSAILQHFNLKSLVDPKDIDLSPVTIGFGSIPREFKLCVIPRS

Assays:
IRE-1α [1] = target: IRE-1α (UniProt O75460); assay: co-IP; Fig. S11: after long free fatty acid (palmitate) treatment (more than 6 hours; 12-hour time point)
IRE-1α [2] = target: IRE-1α (UniProt O75460); assay: co-IP; Fig. S11: BI-1 with CPR and with IRE-1α, without treatment and over a time course of free fatty acid stress; cells and precipitating antibody not given
[3] = target: T1, NADPH-cytochrome CYP reductase (CPR), HepG2 cells (human (endogenous in HepG2)) (UniProt P16435); assay: as above
T1 sequence: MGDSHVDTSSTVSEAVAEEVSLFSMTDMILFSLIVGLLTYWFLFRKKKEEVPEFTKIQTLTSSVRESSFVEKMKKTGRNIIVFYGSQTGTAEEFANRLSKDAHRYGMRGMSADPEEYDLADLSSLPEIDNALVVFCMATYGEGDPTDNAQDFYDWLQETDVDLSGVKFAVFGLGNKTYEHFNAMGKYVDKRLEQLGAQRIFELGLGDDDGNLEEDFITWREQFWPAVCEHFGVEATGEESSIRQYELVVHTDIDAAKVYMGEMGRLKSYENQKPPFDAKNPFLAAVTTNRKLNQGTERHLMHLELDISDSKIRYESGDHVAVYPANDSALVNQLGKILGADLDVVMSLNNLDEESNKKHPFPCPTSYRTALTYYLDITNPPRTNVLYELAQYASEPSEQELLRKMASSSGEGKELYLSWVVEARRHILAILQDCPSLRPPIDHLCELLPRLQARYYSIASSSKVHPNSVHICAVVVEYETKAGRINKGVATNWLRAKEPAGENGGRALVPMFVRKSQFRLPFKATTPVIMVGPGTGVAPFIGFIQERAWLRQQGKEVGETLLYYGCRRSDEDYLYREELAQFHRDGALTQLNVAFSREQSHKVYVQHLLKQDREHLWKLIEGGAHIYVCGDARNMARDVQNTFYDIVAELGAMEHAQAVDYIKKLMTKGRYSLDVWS

[4] = target: T1, NADPH-cytochrome CYP reductase (CPR), HepG2 cells (human (endogenous in HepG2)); assay: co-IP; lysates of HepG2 Neo and BI-1 cells treated with 250 uM palmitate for indicated periods; protein A/G-Sepharose; which protein was precipitated is not told
[5] = target: T2, NADPH-cytochrome CYP reductase (CPR), mouse liver (mouse (endogenous in liver)) (UniProt P37040); assay: co-IP; liver lysates of high-fat diet-fed BI-1 wild-type and BI-1 knock-out mice, and of normal or high-fat diet-fed mice injected with GFP or BI-1 adenovirus; protein A/G-Sepharose; which protein was precipitated is not told
T2 sequence: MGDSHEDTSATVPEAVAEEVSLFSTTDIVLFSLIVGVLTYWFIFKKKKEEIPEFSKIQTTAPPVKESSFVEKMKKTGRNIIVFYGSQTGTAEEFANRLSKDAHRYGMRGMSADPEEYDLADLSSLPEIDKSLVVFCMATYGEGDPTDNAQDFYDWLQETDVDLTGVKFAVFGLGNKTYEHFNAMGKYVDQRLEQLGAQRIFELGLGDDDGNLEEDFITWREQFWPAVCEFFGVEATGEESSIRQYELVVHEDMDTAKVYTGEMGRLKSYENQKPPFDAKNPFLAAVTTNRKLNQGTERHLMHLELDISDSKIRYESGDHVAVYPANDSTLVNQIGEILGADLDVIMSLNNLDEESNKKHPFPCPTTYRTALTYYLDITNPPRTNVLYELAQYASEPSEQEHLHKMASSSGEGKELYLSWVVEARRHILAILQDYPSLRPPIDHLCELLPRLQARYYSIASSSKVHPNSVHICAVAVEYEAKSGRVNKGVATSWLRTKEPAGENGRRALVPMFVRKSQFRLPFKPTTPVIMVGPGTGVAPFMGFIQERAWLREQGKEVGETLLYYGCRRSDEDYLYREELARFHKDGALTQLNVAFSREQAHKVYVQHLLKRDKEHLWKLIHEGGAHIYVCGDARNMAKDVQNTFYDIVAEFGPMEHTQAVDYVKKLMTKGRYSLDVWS

## Bax inhibitor-1 (BI-1), HA-tagged, stably expressed in HepG2 (from UniProt P55061 1-237)
IRE-1α [1]
  binding: binds weakly
IRE-1α [2]
  binding: binds
[3]
  binding: binds

## cytochrome p450 2E1 (CYP2E1), HepG2 cells (from UniProt P05181 1-493) (enzyme)
[4]
  binding: binds

## cytochrome p450 2E1 (CYP2E1), mouse liver (from UniProt Q05421 1-493) (enzyme)
[5]
  binding: binds
